# According to PubChem BioAssay AID624156 (Broad Institute, 2012):
# About 900 (2%) of roughly 46,000 compounds were called active. This list was built around the results that the source calls inconclusive (neither active nor inactive); the mix of calls is not that of the screen. Rule as the data show it: active = ROS induction above about 79% (passing the limit was not always enough); inconclusive = no clear call, values can overlap the other calls.
# Assay: ROS inducers in U2OS cancer cells, primary screen, cell-based, H2DCF-DA fluorescence (AID 624156);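 also: 0% = DMSO vehicle median and 100% = reference compound median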
# Settings: at 10 µM, active compounds read high
row,SMILES,ROS induction (% of piperlongumine)
1,CCN(CC)S(=O)(=O)c1ccc(Cc2ccc(S(=O)(=O)N(CC)CC)cc2)cc1,inconclusive: 80.7%
2,C[C@@H]1CCCCO[C@@H](CN(C)C(=O)c2ccccc2)[C@@H](C)CN([C@H](C)CO)C(=O)c2cc(NC(=O)Nc3cccc4ccccc34)ccc2O1,inactive: -22.4%
3,CCOC(=O)c1c(CN(C)C)n(-c2ccccc2)c2cc(Br)c(OC)cc12,active: 238%
4,C[C@@H]1CN([C@H](C)CO)C(=O)c2cc(NC(=O)c3ccncc3)ccc2O[C@@H]1CN(C)CC1CCCCC1,inconclusive: 585%
5,Cc1noc(C)c1S(=O)(=O)Nc1ccc2c(c1)C(=O)N([C@@H](C)CO)C[C@H](C)[C@H](CN(C)Cc1ccc(C(F)(F)F)cc1)O2,inconclusive: 86.3%
6,C[C@@H]1CN([C@@H](C)CO)C(=O)c2cc(NS(=O)(=O)c3ccc(F)cc3)ccc2O[C@@H]1CN(C)Cc1ccc(C(=O)O)cc1,inactive: -0.708%
7,COc1ccc(NC(=O)N(C)C[C@@H]2Oc3ccc(NS(=O)(=O)c4ccccc4)cc3CC(=O)N([C@H](C)CO)C[C@@H]2C)cc1,inconclusive: 80%
8,COc1ccc(NC(=O)Nc2ccc3c(c2)C(=O)N([C@@H](C)CO)C[C@H](C)[C@H](CN(C)Cc2ccc(Cl)c(Cl)c2)O3)cc1,inconclusive: 221%
9,CCSc1ccsc1C1C(C#N)=C(N)N(c2cccnc2)C2=C1C(=O)CC(C)(C)C2 (configuration not stated),inconclusive: 81.4%
10,C[C@H](CO)N1C[C@H](C)[C@H](CN(C)S(=O)(=O)c2ccccc2)Oc2c(NC(=O)C3CC3)cccc2C1=O,inconclusive: 244%
11,Clc1ccc(CO/N=C(\Cn2ccnc2)c2ccc(Cl)cc2Cl)c(Cl)c1,inactive: 35.2%
12,CCOC(=O)c1oc2ccccc2c1NC(=O)CCN1CCCCC1,inactive: -1.62%
13,Cc1ccc(S(=O)(=O)N(C)C[C@@H]2OCCCC[C@@H](C)Oc3ccc(NC(=O)c4ccccc4)cc3C(=O)N([C@H](C)CO)C[C@@H]2C)cc1,inconclusive: 135%
14,C[C@H]1CN([C@@H](C)CO)C(=O)c2cccc(NC(=O)NC3CCCCC3)c2O[C@@H]1CN(C)C(=O)Nc1ccc(C(F)(F)F)cc1,inactive: -11.6%
15,O=C(Nc1ccc(-n2nncc2-c2ccccc2)cc1)c1ccc(S(=O)(=O)N2CCCCC2)cc1,inactive: 51.9%
16,COc1ccc(NC(=O)N(C)C[C@H]2Oc3ccc(NC(=O)Cc4ccccc4)cc3CC(=O)N([C@@H](C)CO)C[C@@H]2C)cc1,active: 99.5%

# An excerpt of these results, bar-delimited:
row | SMILES | ROS induction (% of piperlongumine)
15 | O=C(Nc1ccc(-n2nncc2-c2ccccc2)cc1)c1ccc(S(=O)(=O)N2CCCCC2)cc1 | inactive: 51.9%
16 | COc1ccc(NC(=O)N(C)C[C@H]2Oc3ccc(NC(=O)Cc4ccccc4)cc3CC(=O)N([C@@H](C)CO)C[C@@H]2C)cc1 | active: 99.5%

# The list continues:

row,SMILES,ROS induction (% of piperlongumine)
1,C[C@@H]1CN([C@@H](C)CO)C(=O)c2cccc(NC(=O)c3ccc(-c4nccs4)cc3)c2O[C@H]1CN(C)Cc1ccc(Cl)c(Cl)c1,inconclusive: 131%
2,Cc1nnc(Sc2cc(C(=O)NCCN(C)Cc3ccccc3)c3ccccc3n2)s1,inactive: 21.5%
3,C[C@H](CO)N1C[C@H](C)[C@H](CN(C)S(=O)(=O)c2cn(C)cn2)Oc2ncc(C#Cc3ccccc3)cc2C1=O,active: 120%
4,OCCN(CCO)c1nc(-c2ccccc2)nc2sc(-c3ccccc3)cc12,active: 116%
5,C[C@H]1CN([C@@H](C)CO)C(=O)c2cccc(NC(=O)CCCCCC(=O)Nc3ccccc3N)c2O[C@H]1CN(C)Cc1ccc(-c2ccccc2)cc1,inconclusive: 82.7%
6,C[C@@H]1CCCCO[C@@H](CN(C)C(=O)C2CCCCC2)[C@@H](C)CN([C@H](C)CO)C(=O)c2cc(NC(=O)c3ccccc3)ccc2O1,inconclusive: 83.5%
7,O=C(NCCCn1ccnc1)c1cnn2c(C(F)(F)F)cc(-c3ccccc3)nc12,inconclusive: 79.3%
8,C[C@H]1CN([C@@H](C)CO)C(=O)c2cc(NC(=O)CCC(F)(F)F)ccc2O[C@H]1CN(C)Cc1ccc(C(=O)Nc2ccccc2N)cc1,inactive: 3.39%
9,COc1ccc(OC)c(S(=O)(=O)ON2C(=O)c3ccccc3C2=O)c1,inconclusive: 76.8%
10,C[C@@H]1CN([C@H](C)CO)C(=O)c2cc(NC(=O)Nc3ccc4c(c3)OCO4)ccc2O[C@@H]1CN(C)Cc1ccc2c(c1)OCO2,inconclusive: 101%
11,COC(=O)CCCCCCC(=O)N/N=C/c1ccccc1Br,inactive: 9.43%
12,CC(C)n1c2ccccc2c2nnc(SCCCC(=O)c3ccc(F)cc3)nc21,inactive: 7.26%
13,Cc1noc(C)c1S(=O)(=O)N(C)C[C@H]1OCCCC[C@@H](C)Oc2ccc(NC(=O)Nc3ccccc3)cc2C(=O)N([C@H](C)CO)C[C@@H]1C,inconclusive: 81.8%
14,C[C@H](CO)N1C[C@H](C)[C@H](CN(C)Cc2ccccc2)Oc2ccc(NC(=O)CCC(F)(F)F)cc2CC1=O,inconclusive: 87.2%
15,C[C@H](CO)N1C[C@H](C)[C@@H](CN(C)CC2CCCCC2)Oc2ccc(NC(=O)Nc3ccc(F)cc3)cc2C1=O,inactive: 8.85%
16,Cc1c(C2CCN(CCc3ccccc3)CC2)noc1-c1ccc(Cl)cc1,inconclusive: 76.7%
